Reference: the supplement of paper PMC3334620
Over roughly 33,000 sequences, “E-score (-0.5 to 0.5)” has its median near -8e-05; the highest 2% begin near 0.23. This is one part of the list.

Molecular target: T1, Nrg2 (UniProt P38082)
T1 sequence: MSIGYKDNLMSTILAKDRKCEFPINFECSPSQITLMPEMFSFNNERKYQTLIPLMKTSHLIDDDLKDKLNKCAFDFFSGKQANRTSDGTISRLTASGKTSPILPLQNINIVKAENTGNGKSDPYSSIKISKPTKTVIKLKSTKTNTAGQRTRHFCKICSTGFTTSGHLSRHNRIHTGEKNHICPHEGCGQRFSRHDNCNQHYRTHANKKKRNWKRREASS
Experiment: PBM E-score (8-mer binding enrichment) (E-score (-0.5 to 0.5)); higher = stronger / more preferred TF binding
Settings: protein concentration: 100 nM; construct: GST-full length
Procedure, shortened: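 For each ungapped eight-base word taken together with its reverse complement, the Universal PBM Analysis Suite assigned an E-score. Binding data came from GST-tagged yeast transcription factors, applied at about 100-200 nM, on universal all-10-mer Agilent arrays made double-stranded by primer extension. Fluorescent anti-GST marked bound protein, and scans were normalised with masliner.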

Sequence | PBM E-score
CGACCGAG | 0.0733
ATGGTTCC | 0.0737
CAATGGTG | -0.125
CATCGAGA | 0.0688
AAAATGTC | -0.0272
CGCGCACA | 0.106
AGCTCTGG | -0.136
ATGCTAAC | -0.0282
ACTCCGAC | -0.0221
AGACCGCT | -0.155
CCACCTAA | -0.0686
CATAACAA | 0.203
ACGGGTGG | 0.00221
CTCAGAAG | -0.156
CGTTAGAA | -0.154
ACTTCCTA | 0.0166
AGCGCGTC | -0.0322
ACACTAAA | 0.271
GCAGCACC | -0.17
CTGGGTCC | -0.288
CCATGTCC | -0.092
CGAACGTA | -0.0451
GGCCGCAA | 0.0227
AATGTCGT | 0.033
ACGGACCC | 0.081

Sequence | PBM E-score
AGAAAACT | -0.0407
GCGAACCC | 0.167
ACGTAAAT | -0.131
AGAGACAC | -0.0137
CATATTGA | -0.0238
AGCCCGGA | -0.118
CATTGGAG | 0.0158
CAAACGCA | -0.104
CGGTGCTA | -0.0189
CATCTAAC | -0.152
GACATCAC | -0.0431
CCCCTGCA | -0.00126
CAGTGGGC | -0.00236
CAATGGCC | -0.178
CGGGTGCA | -0.0669
GTAACTAA | 0.0975
AATGACTC | -0.202
ACAAGAGA | 0.24
AATGACAG | 0.0722
GACTTGCC | -0.134
ATACATTC | -0.0371
CTAGGCAA | -0.162
CATCACGA | -0.199
CTCTGTCC | -0.0333
AACGTGGG | -0.202

Sequence | PBM E-score
CAATGTTC | 0.00207
ATGCTCTG | -0.116
AGCATCCG | -0.129
CCTCTCGA | -0.179
ACGGCGCC | -0.0618
GGATTGTA | -0.0569
ACCTACGT | 0.00416
CAACCCTG | 0.252
CTACGAAG | -0.169
GGGACTTA | 0.112
CATGCACA | 0.143
GCGCATGA | -0.0314
ATCGCACA | 0.022
CCTATTTC | 0.173
CGTACTCC | -0.143
CCTGTATA | 0.0265
ACATTAAA | 0.143
ATTTGGAG | -0.0394
GAGACGTA | 0.0534
TCTGAGCA | -0.0828
ACCCTATC | 0.129
AAGCTTAG | 0.107
CGACAGGA | 0.0965
AGTCATAT | 0.0126
ACCGATCG | -0.0446

Sequence | PBM E-score
GTCAGCCA | -0.107
AGTGCTAA | -0.0814
TACCTCCA | -0.0804
ACACTACC | -0.141
GCGCGGTA | 0.271
AGGGATTG | 0.118
CAACAAGC | 0.0591
ACCGAAAA | 0.161
ATATAGGC | 0.118
GGGGCTAA | -0.0626
GGGTGCTA | -0.0127
AACCTTAA | 0.293
GCAATTGC | 0.0706
AAAGTCTC | -0.204
TGATTTAA | 0.109
CCACGTGA | -0.0788
ACAGCGAG | -0.0664
CCAATAGA | -0.0435
AACCGTGC | 0.0462
ACATTCTA | -0.0515
CGATACCA | 0.124
GGGTATAA | 0.0367
CGGTAGCC | -0.05
CTGACTAA | 0.0258
GAAGAATC | -0.0943

Looked up above.
PBM E-score, GGGTGCTA is entered as -0.0127
PBM E-score, ATATAGGC is entered as 0.118

Next part.

Sequence | PBM E-score
CTGTATCA | -0.108
AGTGGGAA | -0.0158
ATTGTTGG | 0.21
CAGTTCGA | 0.0869
CACTCTGA | -0.182
CCGGGTAA | 0.145
GACTACCA | -0.155
CGAGCCCC | -0.154
GAGGCTGC | -0.111
AGCACTAG | 0.0493
CTGATATA | -0.0319
GCAGATAC | 0.0184
GTTCATCA | 0.113
ACGACTCT | 0.0279
CGATCACC | 0.0627
CTGCGAAA | -0.115
CTGTAGTA | 0.245
AGCTGACT | 0.12
CATCTGGA | 0.0158
CCTTCGAG | -0.091
GATTTTTA | 0.0399
CCGGCGTA | -0.102
GATAGCCC | -0.125
AACGTGCA | -0.0525
ACGCAACT | 0.183

Reformatted as labelled records: part of the list above
AGTGGGAA
  PBM E-score = -0.0158
ATTGTTGG
  PBM E-score = 0.21
CAGTTCGA
  PBM E-score = 0.0869

Following part.

Sequence | PBM E-score
CTTGGATC | -0.0261
CGGTGGAA | -0.0997
AGGGAAAG | -0.0204
AACTTAAG | -0.0727
CAAGTCAG | -0.0172
GAAGATAA | 0.125
GAACTGCC | 0.0841
ATGGAGTC | -0.095
GACCGATA | 0.0777
ATCTGCGA | 0.0624
CCCGATCG | -0.026
AGGGAGGA | -0.202
ACTGTGGA | -0.109
GATCCGCC | 0.0473
GTCGAGCA | -0.21
CGCCTGAC | 0.0417
ATTCCCTG | 0.198
AGCAGTAG | -0.187
CCGCCTAG | -0.0286
AATGGTCC | 0.0501
GTAGCTAC | 0.123
AGACCAGA | -0.0154
AAGCGCAA | 0.147
CACATTAG | -0.122
ATTGCTAA | 0.11

For convenience, some entries already given.
Sequence | PBM E-score
GAAGATAA | 0.125
GAACTGCC | 0.0841
ATGGAGTC | -0.095

Additional records

Sequence | PBM E-score
CGGAACTA | 0.134
GGATATCC | 0.22
AGACGACT | -0.127
GAATATCC | 0.00739
CTCCACAA | 0.0307
CCGAACGG | -0.0332
CTAAAGGA | -0.086
GGGTAGGA | -0.0916
ATTTTTTG | 0.219
GCCCAAAA | -0.0396
AGTGGCAA | 0.0526
ATAAGTCG | -0.0756
AACCCTCC | -0.0766
AGGAGACT | -0.286
AACGTTGG | -0.175
CACGCTCA | 0.122
ATGTGCGA | -0.0684
CGTGCGCC | 0.086
ATGGCGGA | -0.0987
ATTGGTCC | 0.0937
CACCAAGA | 0.00109
GCGGATAC | 0.0466
